Each structure is given as a SMILES string. Over roughly 3,200 compounds, “TSA(without NAD+) / Primary screening (TSA) / delta Tm (K)” has its median near -0.07; the highest 2% begin near 0.37. Some of the results follow.

Protein sequences, listed by entry. Tags and fused reporters are not part of them. Residues count along the entry.
UniProt Q96EB6, 2-747 limits assumed: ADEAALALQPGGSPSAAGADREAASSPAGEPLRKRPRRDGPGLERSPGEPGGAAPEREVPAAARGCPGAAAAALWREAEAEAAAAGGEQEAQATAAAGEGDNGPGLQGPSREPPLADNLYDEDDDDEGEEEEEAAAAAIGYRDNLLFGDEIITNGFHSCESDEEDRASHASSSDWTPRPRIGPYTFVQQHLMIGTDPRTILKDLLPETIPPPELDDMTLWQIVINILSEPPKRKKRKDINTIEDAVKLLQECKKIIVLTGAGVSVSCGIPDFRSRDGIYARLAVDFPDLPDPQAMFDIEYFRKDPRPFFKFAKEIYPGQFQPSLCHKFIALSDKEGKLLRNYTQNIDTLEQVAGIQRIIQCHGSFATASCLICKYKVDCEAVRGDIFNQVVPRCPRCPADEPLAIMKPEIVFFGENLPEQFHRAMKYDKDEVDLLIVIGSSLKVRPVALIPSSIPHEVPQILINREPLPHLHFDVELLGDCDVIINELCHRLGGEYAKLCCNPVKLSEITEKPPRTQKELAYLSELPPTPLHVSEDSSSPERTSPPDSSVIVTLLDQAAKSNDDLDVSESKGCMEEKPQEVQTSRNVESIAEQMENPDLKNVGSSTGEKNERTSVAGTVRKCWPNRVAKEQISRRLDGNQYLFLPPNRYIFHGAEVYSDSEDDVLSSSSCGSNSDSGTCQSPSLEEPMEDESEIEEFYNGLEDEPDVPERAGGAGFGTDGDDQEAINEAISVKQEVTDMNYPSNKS

The experiment concerns the target NAD-dependent deacetylase Sirtuin 1 (human, UniProt Q96EB6). Description: primary screen, delta tm. Also noted: single well (n = 1). Particulars: 10 µM. In short, it runs like this: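 Thermal shift of Sirtuin 1 measured without NAD+, compound at 10 µM (n = 1); value is ΔTm, with hits defined as ΔTm > 0.45 K or < −1.5 K. Hits retested at 5, 10, 20 µM (n = 4) and counterscreened on bovine carbonic anhydrase and ABL1 SH2 domain.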
Take `COc1cc(CN(C)C(=O)c2cccc(S(=O)(=O)N3CCCC3)c2)ccc1OCc1ccccc1`: the “TSA(without NAD+) / Primary screening (TSA) / delta Tm (K)” value is given as -0.12 K.
For `COc1cccc(/C=C2/COc3ccc(Br)cc3C2=O)c1OC(F)F` the value was -0.08 K; for `O=C(Cc1c[nH]c2ccccc12)Nc1ccc(N2CCN(Cc3ccccc3)CC2)cc1`, -0.04 K.
For `CCc1ccc(OCC(=O)NNC(=O)Cc2ccc(OC)cc2)cc1` the value was 0.07 K.
For `CN(c1ccccc1)S(=O)(=O)c1ccc(C(=O)Nc2cccc(S(=O)(=O)N3CCOCC3)c2)cc1` the value was 0.02 K; for `CN1CCN(CCc2cccc(NC(=O)C3CC3c3ccc4ccccc4c3)c2)CC1` (centres unmarked), 0.16 K; for `COc1ccc(N2CCN(c3ncnc4sc5c(c34)CCC5)CC2)cc1`, -0.13 K.
As to `c1ccc(-c2nc(CSc3nnc(NCc4ccco4)s3)cs2)nc1`, the “TSA(without NAD+) / Primary screening (TSA) / delta Tm (K)” value is listed as 0.27 K.
For `CNC1CCc2[nH]c3ccc(Cl)cc3c2C1` (centres unmarked) the value was -0.15 K; for `CC(=O)NC1CCCN(c2c(C)c(C)nc3ccccc23)C1` (centres unmarked), -0.28 K; for `CCc1ccc(CNC(=O)Nc2ccncc2C)cc1`, -0.38 K.
For `COc1cc(NC(C)C(=O)Nc2ccc(C(N)=O)cc2)cc(OC)c1OC` (centres unmarked) the value was -0.18 K.
For `CCN(CC)CCNC(=O)c1ccc(NC(=O)CC2CCCC2)cc1` the value was 0.07 K; for `O=C(CCc1ccccc1)NC1CCN(c2ccc([N+](=O)[O-])c3cccnc23)CC1`, -0.28 K.
For the compound `CC(C)Cn1c(SCC(=O)Nc2sc3c(c2C(N)=O)CCC3)nnc1N1CCOCC1`, the “TSA(without NAD+) / Primary screening (TSA) / delta Tm (K)” value is recorded as -0.02 K.
For `CCOc1ccc(C2C(C(=O)c3ccc(F)cc3)=C(O)C(=O)N2CCCN2CCOCC2)cc1OC` (centres unmarked) the value was -0.12 K; for `CCOc1ccc(-n2c(SCC(=O)c3[nH]c(C)c(C(C)=O)c3C)nc3ccccc3c2=O)cc1`, -0.03 K; for `COc1ccc(NC(=O)c2cccc(OCc3c(C)noc3C)c2)cc1OCc1cn2ccccc2n1`, 0.08 K.
For `Cc1ccc(Nc2nnc(SCC(=O)Nc3cc(C)c(C)cc3[N+](=O)[O-])s2)cc1` the value was -0.03 K; for `COC(C)C(O)C(=O)O` (centres unmarked), -0.13 K.
For `COc1ccc2c(C=C3C(=O)NC(=O)NC3=O)cccc2c1`, the “TSA(without NAD+) / Primary screening (TSA) / delta Tm (K)” value is given as -0.37 K.
Consider `O=C(Oc1ccccc1Cc1ccccc1)c1ccc2c(c1)S(=O)(=O)c1ccccc1C2=O`, for which the “TSA(without NAD+) / Primary screening (TSA) / delta Tm (K)” value was determined as 0.02 K.
`Cc1nc(CN2CCN(CC(=O)N(C)Cc3cccs3)CC2)no1`: the “TSA(without NAD+) / Primary screening (TSA) / delta Tm (K)” value is given as -0.12 K.
